Source: patent US20160069887A1, “BIOMARKERS FOR PROGNOSIS” (ISIS INNOVATION LIMITED, priority 2013, published 2016)

Test system: U2OS-TET-Flag-HR23B inducible cells
Experiment: Cell colony assay
Format: cell-based
Settings: ectopic HR23B (+Dox) compared to uninduced (−Dox) cells; 9 days
Procedure: e) i) U2OS cells stably expressing HR23B were grown in duplicate in the absence (−) or presence (+) of doxycycline together with SAHA (indicated concentration in μM) and, after 9 days, the number of viable cell colonies was assessed by crystal violet staining. The untreated control cells are shown for comparison.
ii) Graphical representation of the data in (i).
U2OS-TET-Flag-HR23B inducible cells were seeded at 1000 cells/well in 6-well plates. Flag-HR23B was induced for 4 hr prior to 24 hr drug treatment as indicated. At 9 days post-drug treatment, cells were washed in PBS, fixed in methanol and stained with crystal violet solution for 15 min before extensive washing with water. The colonies were quantified using an Alphalmager® HP Imaging System and Alphaview software by Alpha Innotech Corporation.

With `O=C(CCCCCCC(=O)Nc1ccccc1)NO` [SAHA, N-hydroxy-N′-phenyloctanediamide] the “growth inhibitory effect (reduction in cell colony formation number)” value was “markedly enhanced growth inhibitory effect”.
